The results in this text go back to the supplement of paper PMC8047044.

The list shows a part of the results. Many values rest on one well or one pass, so single values are uncertain.

This assay concerns Neuro-2a. Description: neurite formation score, plate-normalized to DMSO control mean 5.04 (score (0-8 scale)); higher = more or longer neurites. Conditions: 10 µM.
On to `CCCNC(=O)Nc1ccc(Oc2ncnc3cc(OC)c(OC)cc23)cc1Cl`, for which the neurite formation score amounted to 4.85. Next, `COc1cc2c(N3CCN(C(=O)Nc4ccc(OC(C)C)cc4)CC3)ncnc2cc1OCCCN1CCCCC1` [Tandutinib (MLN518)]: 4.76; `Cc1ccc(Nc2nccc(N(C)c3ccc4c(C)n(C)nc4c3)n2)cc1S(N)(=O)=O`: 4.88; `CN([C@@H](Cc1ccc(OS(=O)(=O)c2cccc3cnccc23)cc1)C(=O)N1CCN(c2ccccc2)CC1)S(=O)(=O)c1cccc2cnccc12`: 2.85. In turn, `CCCCCCCCCCCCCCCCCC(=O)OC[C@H](CO)OC(=O)CCCCCCCCCCCCCCCCC` [1,2-Distearoyl-sn-glycerol] yielded a neurite formation score of 5.86.

With `CCOc1cc(N2CCC(O)CC2)ccc1Nc1ncc2c(n1)N(C)c1ccccc1C(=O)N2C`, the neurite formation score was 4.08. On to `CN1CCN(C2CCN(C(=O)Nc3cc(Oc4ccc(NC(=O)C5(C(=O)Nc6ccc(F)cc6)CC5)c(F)c4)ccn3)CC2)CC1` [Golvatinib (E7050)], for which the neurite formation score stood at 2.09. The result for `Nc1ncnc2n[nH]c(Nc3ccc(F)cc3)c12` reads 5.19.
